Test results as given in patent publication US11005050B2, “Metal complexes” (Merck Patent GmbH, priority 2014, dated 2021).

assay: Vacuum-processed OLEDs (efficiency, voltage, colour coordinates, lifetime); conditions: vacuum-processed blue OLEDs

Row | SMILES | LT50 (h) 1000 cd/m^2
1 | c1c[c]2c3c(c1)c1ccccc1n1c4c([n+](c31)[Ir-3]213([c]2cccc5c6ccccc6n6c7c([n+]1c6c25)C1CCC7CC1)[c]1cccc2c5ccccc5n5c6c([n+]3c5c12)C1CCC6CC1)C1CCC4CC1 [Ir(LB120)3] | 500 h

same assay, conditions: vacuum-processed red, yellow and green OLEDs

Row | SMILES | LT80 (h) 1000 cd/m^2
2 | c1cc[c]2c(c1)-c1cccc[n+]1[Ir-3]213([c]2cc4c(cc2-c2cccc[n+]21)C1CCC4CC1)[c]1cc2c(cc1-c1cccc[n+]13)C1CCC2CC1 [Ir518] | 24000 h
3 | c1ccc(-c2cc3c(c[c]2[Ir]([c]2ccccc2-c2cc4c(cn2)C2CCC4CC2)[c]2cc4c(cc2-c2ccccn2)C2CCC4CC2)C2CCC3CC2)nc1 [Ir533] | 26000 h

assay: Solution-processed OLEDs from soluble functional materials; conditions: device Type 1, at 1000 cd/m^2

Row | SMILES | EQE (%) 1000 cd/m^2 | Voltage (V) 1000 cd/m^2
4 | CC1(C)c2ccccc2-c2cc3c4ccccc4n(-c4cccc(-c5cc[c]([Ir]([c]6cc7c(cc6-c6ccccn6)C6CCC7CC6)[c]6cc7c(cc6-c6ccccn6)C6CCC7CC6)c(-c6cc7c(cn6)C6CCC7CC6)c5)c4)c3cc21 [Ir614] | 20.3% | 4.5 V
5 | Cc1cccc(C)c1-n1c2[n+](c3cc4c(cc31)C1CCC4CC1)[Ir-3]13([c]4ccccc4-c4cccc[n+]41)([c]1ccccc1-2)[c]1ccccc1-c1n(-c2c(C)cccc2C)c2cc4c(cc2[n+]13)C1CCC4CC1 [Ir524] | 14.6% | 4.8 V
6 | c1ccc(-c2cc[n+]3c(c2)-c2cc4c(c[c]2[Ir-3]325([c]3cc6c(cc3-c3cc(-c7ccccc7)cc[n+]32)C2CCC6CC2)[c]2cc3c(cc2-c2cc(-c6ccccc6)cc[n+]25)C2CCC3CC2)C2CCC4CC2)cc1 [Ir(LB3)3] | 22.1% | 4.1 V
7 | CC(C)(C)c1ccc2nc(-c3cc4c(c[c]3[Ir]([c]3ccccc3-c3ccccn3)[c]3cc5c(cc3-c3nc6ccc(C(C)(C)C)cc6c6c3C3CC7CC(C3)CC6C7)C3CC6CC(C3)CC5C6)C3CC5CC(CC4C5)C3)c3c(c2c1)C1CC2CC(CC3C2)C1 [Ir525] | 20.1% | 3.9 V
8 | CC1(C)c2ccccc2-c2cc3c4ccccc4n(-c4cc[c]5c(c4)-c4cccc[n+]4[Ir-3]546([c]5cc7c(cc5-c5cccc[n+]54)C4CCC7CC4)[c]4cc5c(cc4-c4cccc[n+]46)C4CCC5CC4)c3cc21 [Ir701] | 19.9% | 4.4 V
9 | Cc1cc2[n+](cc1-c1ccccc1)[Ir-3]13([c]4cc5c(cc4-2)C2(C)CCC5(C)CC2)([c]2cc4c(cc2-c2cc(C)c(-c5ccccc5)c[n+]21)C1(C)CCC4(C)CC1)[c]1cc2c(cc1-c1cc(C)c(-c4ccccc4)c[n+]13)C1(C)CCC2(C)CC1 [Ir(LB11)3] | 21.0% | 4.5 V
10 | [2H]c1c([2H])[c]2c3c(c([2H])c([2H])c4c5c(c[n+](c43)[Ir-3]234([c]2c([2H])c([2H])c(-c6ccc7c(c6)C(C)(C)c6ccccc6-7)c6c([2H])c([2H])c7c8c(c[n+]3c7c26)C2CC3CC(C2)CC8C3)[c]2c([2H])c([2H])c(-c3ccc6c(c3)C(C)(C)c3ccccc3-6)c3c([2H])c([2H])c6c7c(c[n+]4c6c23)C2CC3CC(C2)CC7C3)C2CC3CC(C2)CC5C3)c1-c1ccc2c(c1)C(C)(C)c1ccccc1-2 [Ir603] | 20.7% | 4.1 V
11 | c1ccc(-c2ccc3[n+](c2)[Ir-3]24([c]5ccccc5-c5cccc[n+]52)([c]2cc5c(cc2-3)C2CCC5CC2)[c]2cc3c(cc2-c2ccc(-c5ccccc5)c[n+]24)C2CCC3CC2)cc1 [Ir519] | 20.0% | 4.6 V
12 | c1ccc(-c2cccc(-c3cc[c]4c5c3ccc3c6c(c[n+](c35)[Ir-3]435([c]4ccc(-c7cccc(-c8ccccc8)c7)c7ccc8c9c(c[n+]3c8c47)C3CC4CCC3CC94)[c]3ccc(-c4cccc(-c7ccccc7)c4)c4ccc7c8c(c[n+]5c7c34)C3CC4CCC3CC84)C3CC4CCC3CC64)c2)cc1 [Ir604] | 21.0% | 4.0 V
13 | c1cc[c]2c(c1)-c1cccc[n+]1[Ir-3]213([c]2cc4c(cc2-c2cc(-c5ccc6c(c5)C5CCC6CC5)cc[n+]21)C1CCC4CC1)[c]1cc2c(cc1-c1cc(-c4ccc5c(c4)C4CCC5CC4)cc[n+]13)C1CCC2CC1 [Ir522] | 21.0% | 4.0 V
14 | Cc1cccc(C)c1-n1c(-c2cccc[c]2[Ir]([c]2cc3c(cc2-c2cc(-c4ccccc4)ccn2)C(C)(C)OC3(C)C)[c]2cc3c(cc2-c2cc(-c4ccccc4)ccn2)C(C)(C)OC3(C)C)nc2cc3c(cc21)C1(C)CCC3(C)CC1 [Ir529] | 19.8% | 4.4 V
15 | c1ccc(-c2cc[n+]3c(c2)-c2cc4c(c[c]2[Ir-3]325([c]3ccccc3-c3cccc[n+]32)[c]2cc3c(cc2-c2cc(-c6ccccc6)cc[n+]25)C2CCC3CC2)C2CCC4CC2)cc1 [Ir520] | 21.3% | 4.0 V
16 | CC(C)Cc1cc[c]2c3c1ccc1c4c(c[n+](c13)[Ir-3]213([c]2ccc(CC(C)C)c5ccc6c7c(c[n+]1c6c25)C1CC2CC(C1)CC7C2)[c]1ccc(CC(C)C)c2ccc5c6c(c[n+]3c5c12)C1CC2CC(C1)CC6C2)C1CC2CC(C1)CC4C2 [Ir602] | 20.9% | 3.9 V
17 | Cc1cc2[n+](cc1-c1ccccc1)[Ir-3]13([c]4ccccc4-c4cccc[n+]41)([c]1cc4c(cc1-2)C1(C)CCC4(C)CC1)[c]1cc2c(cc1-c1cc(C)c(-c4ccccc4)c[n+]13)C1(C)CCC2(C)CC1 [Ir523] | 20.9% | 4.6 V
18 | Cc1cc(-c2cc3c(c[c]2[Ir]([c]2ccc(-c4ccc5c(c4)c4ccccc4n5-c4ccccc4)cc2-c2ccccn2)[c]2cc4c(cc2-c2cc(C)c(-c5ccccc5)cn2)C2(C)CCC4(C)CC2)C2(C)CCC3(C)CC2)ncc1-c1ccccc1 [Ir613] | 20.7% | 4.5 V
19 | c1cc[n+]2c(c1)-c1cc3c(c[c]1[Ir-3]214([c]2cc5c(cc2-c2cccc[n+]21)C1CCC5CC1)[c]1cc2c(cc1-c1cccc[n+]14)C1CCC2CC1)C1CCC3CC1 [Ir(LB1)3] | 20.7% | 4.5 V
20 | CC12CCC(C)(CC1)c1c[c]([Ir]([c]3cc4c(cc3-c3cc(-c5ccccc5)ccn3)C(C)(C)C(C)(C)C4(C)C)[c]3cc4c(cc3-c3cc(-c5ccccc5)ccn3)C(C)(C)C(C)(C)C4(C)C)c(-c3ccccn3)cc12 [Ir528] | 20.9% | 4.2 V
21 | c1ccc(-c2cc[n+]3c(c2)-c2cc4c(c[c]2[Ir-3]325([c]3ccc(-c6ccc7c(c6)oc6ccccc67)cc3-c3cccc[n+]32)[c]2cc3c(cc2-c2cc(-c6ccccc6)cc[n+]25)C2CCC3CC2)C2CCC4CC2)cc1 [Ir612] | 20.5% | 4.1 V
22 | c1ccc(-c2ccc(-c3cc4c(c[c]3[Ir]([c]3cc5c(cc3-c3ccccn3)C3CCC5CC3)[c]3cc5c(cc3-c3ccccn3)C3CCC5CC3)C3CC5CC(CC4C5)C3)nc2)cc1 [Ir532] | 20.7% | 4.6 V
23 | c1cc2c(cc1-c1cc[n+]3c(c1)-c1cc4c(c[c]1[Ir-3]315([c]3cc6c(cc3-c3cc(-c7ccc8c(c7)C7CCC8CC7)cc[n+]31)C1CCC6CC1)[c]1cc3c(cc1-c1cc(-c6ccc7c(c6)C6CCC7CC6)cc[n+]15)C1CCC3CC1)C1CCC4CC1)C1CCC2CC1 [Ir(LB9)3] | 21.8% | 4.1 V
24 | Cc1cc2[n+](cc1-c1ccccc1)[Ir-3]13([c]4ccc(-n5c6ccc(-c7ccccc7)cc6c6cc(-c7ccccc7)ccc65)cc4-c4cccc[n+]41)([c]1cc4c(cc1-2)C1(C)CCC4(C)CC1)[c]1cc2c(cc1-c1cc(C)c(-c4ccccc4)c[n+]13)C1(C)CCC2(C)CC1 [Ir703] | 21.0% | 4.4 V
25 | c1ccc2c(c1)-c1ccccc1C21c2ccccc2-c2c[c]3c(cc21)-c1cc2c(c[n+]1[Ir-3]314([c]3ccccc3-c3cccc[n+]31)[c]1ccccc1-c1cccc[n+]14)C1CCC2CC1 [Ir514] | 20.7% | 4.2 V
26 | CC1(C)c2cc(-c3cc(-c4ccccc4)ccn3)[c]([Ir]([c]3cc4c(cc3-c3cc(-c5ccccc5)ccn3)C(C)(C)C(C)(C)C4(C)C)[c]3cc4c(cc3-c3cc5c(cn3)C3CCC5CC3)sc3ccccc34)cc2C(C)(C)C1(C)C [Ir531] | 20.3% | 4.2 V

same assay, conditions: device Type 2, at 1000 cd/m^2

Row | SMILES | EQE (%) 1000 cd/m^2 | Voltage (V) 1000 cd/m^2
27 | c1c[c]2c(cc1C1CCCCC1)-c1cc3cc4c(cc3c[n+]1[Ir-3]213([c]2ccc(C5CCCCC5)cc2-c2cc5cc6c(cc5c[n+]21)C1CCC6CC1)[c]1ccc(C2CCCCC2)cc1-c1cc2cc5c(cc2c[n+]13)C1CCC5CC1)C1CCC4CC1 [Ir608] | 18.6% | 3.7 V
28 | c1ccc(-c2cc(-c3ccccc3)cc(-c3cccc(-c4cc[c]5c(c4)-c4c6cc7c(cc6cc[n+]4[Ir-3]546([c]5ccc(-c8cccc(-c9cc(-c%10ccccc%10)cc(-c%10ccccc%10)c9)c8)cc5-c5c8cc9c(cc8cc[n+]54)C4CC5CC(C4)CC9C5)[c]4ccc(-c5cccc(-c8cc(-c9ccccc9)cc(-c9ccccc9)c8)c5)cc4-c4c5cc8c(cc5cc[n+]46)C4CC5CC(C4)CC8C5)C4CC5CC(C4)CC7C5)c3)c2)cc1 [Ir607] | 16.8% | 3.9 V
